# From patent US20130053392A1, “CARBONIC ANHYDRASE INHIBITORS” (priority 2010, published 2013)
# Protein sequences, listed by entry. Tags and fused reporters are not part of them. Residues count along the entry.
# UniProt P00915, whole entry: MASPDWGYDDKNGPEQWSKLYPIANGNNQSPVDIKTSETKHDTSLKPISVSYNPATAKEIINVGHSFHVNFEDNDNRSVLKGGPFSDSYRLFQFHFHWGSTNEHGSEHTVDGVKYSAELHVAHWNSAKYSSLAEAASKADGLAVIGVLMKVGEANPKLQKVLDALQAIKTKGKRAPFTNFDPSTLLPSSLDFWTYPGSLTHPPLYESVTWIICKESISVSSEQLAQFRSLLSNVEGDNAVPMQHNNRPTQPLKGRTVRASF
# UniProt O43570, 25-354 limits assumed: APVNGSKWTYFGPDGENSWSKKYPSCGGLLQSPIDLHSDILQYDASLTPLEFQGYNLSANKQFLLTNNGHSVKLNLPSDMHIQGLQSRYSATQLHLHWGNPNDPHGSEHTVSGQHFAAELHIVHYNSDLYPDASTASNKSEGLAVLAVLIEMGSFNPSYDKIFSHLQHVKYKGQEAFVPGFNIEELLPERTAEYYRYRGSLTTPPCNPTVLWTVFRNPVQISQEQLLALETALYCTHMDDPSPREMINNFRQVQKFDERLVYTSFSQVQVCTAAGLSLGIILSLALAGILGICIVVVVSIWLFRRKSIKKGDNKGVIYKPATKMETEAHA
# The structures given here were assigned with low confidence; some may be wrong.
# Tests used:
# Assay type in all cases: biochemical
# hCA I = hCA I (Homo sapiens, UniProt P00915); assay: CA-catalysed CO2 hydration stopped-flow inhibition assay, hCA I; conditions: read-out: Ki hCA I; Table 1, sulfamates 3; tested form: iodide
# hCA XII = hCA XII (Homo sapiens, UniProt O43570); assay: CA-catalysed CO2 hydration stopped-flow inhibition assay, hCA XII; conditions: read-out: Ki hCA XII; Table 1, sulfamates 3; tested form: iodide
# hCA II = hCA II (Homo sapiens, UniProt P00918); assay: CA-catalysed CO2 hydration stopped-flow inhibition assay, hCA II; conditions: read-out: Ki hCA II; Table 1, sulfamates 3; tested form: iodide
# hCA IX = hCA IX (Homo sapiens, UniProt Q16790); assay: CA-catalysed CO2 hydration stopped-flow inhibition assay, hCA IX; conditions: tested form: iodide; for KiCAII/KiCAIX: Table 1, selectivity ratio; for Ki: read-out: Ki hCAIX, Table 1, sulfamates 3
Compound,Ki (hCA I),Ki (hCA XII),Ki (hCA II),KiCAII/KiCAIX (hCA IX),Ki (hCA IX)
C[n+]1ccccc1CCNC(=O)Nc1ccc(OS(N)(=O)=O)cc1,1850 nM,8 nM,376 nM,62.6,6 nM
C[n+]1ccccc1CNC(=O)Nc1ccc(OS(N)(=O)=O)cc1,4320 nM,7 nM,403 nM,50.3,8 nM
